Assay results: the supplement of paper PMC3334620
Whole data set: some 33,000 sequences, median “E-score (-0.5 to 0.5)” near -0.0034, cut for the highest 2% near 0.25. Some of the results follow.

target: T1, Yap3 (UniProt P38749); experiment: PBM E-score (8-mer binding enrichment) (E-score (-0.5 to 0.5)); higher = stronger / more preferred TF binding; details: protein concentration: 100 nM; construct: GST-full length
T1 sequence: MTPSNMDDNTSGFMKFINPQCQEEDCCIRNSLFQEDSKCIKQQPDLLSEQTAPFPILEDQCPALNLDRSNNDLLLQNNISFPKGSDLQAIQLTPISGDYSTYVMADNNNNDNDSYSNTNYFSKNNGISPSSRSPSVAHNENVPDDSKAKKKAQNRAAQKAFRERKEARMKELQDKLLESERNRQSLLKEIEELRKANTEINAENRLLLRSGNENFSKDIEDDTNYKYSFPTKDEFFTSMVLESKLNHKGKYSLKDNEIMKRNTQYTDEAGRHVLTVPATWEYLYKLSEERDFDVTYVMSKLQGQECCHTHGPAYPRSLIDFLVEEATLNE
Method in brief: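 Bound GST-tagged yeast transcription factors, applied at about 100-200 nM to double-stranded universal all-10-mer Agilent arrays, were detected with fluorescent anti-GST. Scans were normalised with masliner. A modified Wilcoxon-Mann-Whitney statistic, the E-score, was assigned to each ungapped eight-base word pooled with its reverse complement by the Universal PBM Analysis Suite.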

Row | Sequence | PBM E-score
1 | GTGTGCAA | 0.081
2 | AATTAAGA | 0.154
3 | GATCTTCA | 0.0256
4 | GCCTTTTA | -0.0778
5 | ACTAAAAA | 0.186
6 | CAATGACA | 0.148
7 | CTACAGCA | -0.0455
8 | GAGACCAA | 0.14
9 | ACTAGTAC | 0.0353
10 | CTCGAAAG | -0.102
11 | ACTCCCAA | -0.00646
12 | CGTTCTAG | -0.00341
13 | CTAGACAG | -0.00572
14 | ACATTAGC | 0.0809
15 | ACTATGAT | 0.0862
16 | ACTTACTC | 0.0147
17 | CATTAGAA | 0.123
18 | ATGGGACA | -0.063
19 | GCACGGCC | -0.0946
20 | ACCACGAG | 0.0948
21 | AGCTTGTC | -0.138
22 | AATGATCG | -0.0139
23 | ATTTATAG | 0.206
24 | CGCCCGTA | -0.138
25 | CGCCTCGC | -0.0441

Row | Sequence | PBM E-score
26 | CCACCCCA | -0.0156
27 | ATATTACG | 0.412
28 | CGGACGCA | -0.14
29 | CGACCGCG | -0.129
30 | ACACACCT | 0.156
31 | CGCCTGAG | -0.281
32 | GAAATAAA | 0.14
33 | AATGGTAA | 0.139
34 | CAAACTGA | 0.0396
35 | CATAAGTA | 0.0648
36 | CTGTTGCA | 0.0755
37 | AGACTGGC | -0.21
38 | ACCTCTTC | 0.0473
39 | GCTATCTA | -0.149
40 | GAGGGCCA | -0.104
41 | AAAACGCC | 0.034
42 | CGTTAAGC | 0.124
43 | AAAACACT | 0.138
44 | CTTCACTC | 0.0393
45 | GGCTTACC | -0.109
46 | AAGCCGTG | -0.0151
47 | CGGGTTTC | 0.143
48 | AACAGATT | 0.0661
49 | ATATCCTG | -0.00352
50 | CGGTTAAC | -0.0649

Row | Sequence | PBM E-score
51 | AGGCCTAC | 0.0567
52 | CGGTATAA | 0.18
53 | TCCCAGCA | -0.0642
54 | ATTCATTA | 0.174
55 | CATTGTGG | 0.0578
56 | GACCTCAC | -0.143
57 | CATCGTTA | 0.0683
58 | CCCTAACA | 0.246
59 | GAACGTAA | 0.193
60 | GAGTCTGC | -0.114
61 | AAGCTGTC | -0.113
62 | GTACTGGA | 0.073
63 | AGTCCCGC | -0.163
64 | ACGTTGGA | -0.0317
65 | CAGCCTTC | -0.144
66 | AGAACGTC | -0.0436
67 | GATTCTCA | -0.0856
68 | AGGCCCTC | -0.157
69 | AACGAGAT | 0.11
70 | CCAAGTAC | -0.0358
71 | AGGCATCG | -0.177
72 | ACCTGCGC | -0.0863
73 | AGGGACGC | -0.114
74 | ACAGACTG | -0.0824
75 | ATGATTAA | 0.274

Row | Sequence | PBM E-score
76 | TCACACGA | 0.0224
77 | AGTATCGG | 0.0265
78 | ACATTCGT | 0.0616
79 | GAAGCGAA | -0.0424
80 | TACACTGA | 0.0774
81 | GCCCTGAC | -0.19
82 | AGACGTCG | 4e-05
83 | GACGGTAA | 0.0471
84 | CACCTATA | -0.0571
85 | ATCGGCCG | -0.142
86 | CAATTAGG | -0.00825
87 | CTCCAATA | 0.168
88 | ACAAAGGA | 0.103
89 | AAAGGACA | 0.0199
90 | ACAAATGC | 0.149
91 | CGGAAACC | -0.185
92 | AGAAAACA | 0.186
93 | TAGCCGCA | -0.207
94 | GTCATGGA | -0.0689
95 | ATTAATTC | 0.3
96 | AGGGATCA | -0.0434
97 | AGCAACCC | -0.161
98 | CACTGAGC | -0.114
99 | GTGAGAAC | -0.158
100 | CCCTCAAA | -0.0386

Row | Sequence | PBM E-score
101 | GTAAAGAC | 0.158
102 | AACGGGGT | -0.255
103 | CATGGACA | -0.0959
104 | CAGCTATG | -0.125
105 | CCGCTTGA | -0.0909
106 | GATCGACC | 0.00273
107 | ACCCGACC | -0.189
108 | TAGGGCAA | -0.0175
109 | CAGTCATA | -0.0324
110 | ATAATGTA | 0.292
111 | CAGTGTTA | 0.225
112 | AACAGGCG | -0.272
113 | GCGTGGCA | -0.117
114 | GAAGGACA | -0.0391
115 | ACAGCGTA | -0.0717
116 | ACTCTACG | -0.13
117 | AAATGTAA | 0.227
118 | AGTTTCTC | 0.0391
119 | GGCCTGAA | -0.204
120 | CAATCAAC | 0.217
121 | ACTTGTCG | 0.0841
122 | GGAAACCA | -0.0449
123 | CTACAAAG | 0.0143
124 | CATGTCCA | 0.0196
125 | GTCGCGCA | 0.0573

Row | Sequence | PBM E-score
126 | CTACCCAA | 0.135
127 | ATACCCCG | -0.135
128 | CATTCAGC | 0.00584
129 | AAGGGCAA | -0.0346
130 | AGTGACAG | 0.0684
131 | GATCAGAA | -0.0906
132 | ATTATTGG | 0.0681
133 | CCTAGATC | -0.019
134 | GCTAAAGC | -0.102
135 | GCGAGCCA | -0.0927
136 | CAGATCGG | -0.0324
137 | CGTACAGC | -0.0576
138 | ACTCTGCA | 0.0724
139 | AACCCATC | -0.11
140 | ACCATTTC | 0.112
141 | CCCGTAAG | -0.0857
142 | CCTCTTTA | -0.0595
143 | GTAGTGTA | 0.0151
144 | ATGGACAT | 0.0428
145 | ATGCACTA | 0.0636
146 | GTTATTCA | 0.193
147 | CAAAATAC | 0.207
148 | CCAATTGA | 0.0344
149 | GCCCTCCC | -0.247
150 | AGCGATAT | 0.175

Row | Sequence | PBM E-score
151 | ATCACCTG | -0.00859
152 | GACCCAAA | 0.0385
153 | TAAGTGAA | 0.253
154 | GGCAAGAC | -0.124
155 | CGCCACCC | -0.125
156 | ACCTCAAC | 0.0764
157 | CCATCAGA | -0.167
158 | CAAAGAAC | 0.12
159 | GTATAGAA | 0.132
160 | CTGACGTA | 0.0592
161 | CTCGGTGA | -0.0423
162 | AGGATCAC | 0.0487
163 | CCCTCAAG | -0.116
164 | CTAGCGTC | -0.219
165 | ACTGTATA | 0.103
166 | AGTGATCG | -0.0298
167 | ATGAACGG | -0.0682
168 | CGGTTCAG | -0.272
169 | GGGTGAGA | -0.174
170 | CAGAAATG | 0.0761
171 | ACAGCCCC | -0.2
172 | GAGAGATA | 0.175

An excerpt of these results, as a markdown table.

| Row | Sequence | PBM E-score |
| --- | --- | --- |
| 140 | ACCATTTC | 0.112 |
| 141 | CCCGTAAG | -0.0857 |
| 142 | CCTCTTTA | -0.0595 |
| 143 | GTAGTGTA | 0.0151 |
| 144 | ATGGACAT | 0.0428 |
| 145 | ATGCACTA | 0.0636 |
| 146 | GTTATTCA | 0.193 |
| 147 | CAAAATAC | 0.207 |
| 148 | CCAATTGA | 0.0344 |
| 149 | GCCCTCCC | -0.247 |
| 150 | AGCGATAT | 0.175 |
| 151 | ATCACCTG | -0.00859 |
| 152 | GACCCAAA | 0.0385 |
| 153 | TAAGTGAA | 0.253 |
| 154 | GGCAAGAC | -0.124 |
| 155 | CGCCACCC | -0.125 |
| 156 | ACCTCAAC | 0.0764 |
| 157 | CCATCAGA | -0.167 |
| 158 | CAAAGAAC | 0.12 |
| 159 | GTATAGAA | 0.132 |
| 160 | CTGACGTA | 0.0592 |
| 161 | CTCGGTGA | -0.0423 |
| 162 | AGGATCAC | 0.0487 |
| 163 | CCCTCAAG | -0.116 |
| 164 | CTAGCGTC | -0.219 |
| 165 | ACTGTATA | 0.103 |
| 166 | AGTGATCG | -0.0298 |
| 167 | ATGAACGG | -0.0682 |
| 168 | CGGTTCAG | -0.272 |
| 169 | GGGTGAGA | -0.174 |
| 170 | CAGAAATG | 0.0761 |
| 171 | ACAGCCCC | -0.2 |
